Data taken from ChEMBL document CHEMBL3988442, “University of Dundee, Small-Polar-MMV Screening Library” (2021).

The chains behind the UniProt entries cited, without tags or fusion partners. Residues count along the entry.
UniProt P9WNZ1, whole entry: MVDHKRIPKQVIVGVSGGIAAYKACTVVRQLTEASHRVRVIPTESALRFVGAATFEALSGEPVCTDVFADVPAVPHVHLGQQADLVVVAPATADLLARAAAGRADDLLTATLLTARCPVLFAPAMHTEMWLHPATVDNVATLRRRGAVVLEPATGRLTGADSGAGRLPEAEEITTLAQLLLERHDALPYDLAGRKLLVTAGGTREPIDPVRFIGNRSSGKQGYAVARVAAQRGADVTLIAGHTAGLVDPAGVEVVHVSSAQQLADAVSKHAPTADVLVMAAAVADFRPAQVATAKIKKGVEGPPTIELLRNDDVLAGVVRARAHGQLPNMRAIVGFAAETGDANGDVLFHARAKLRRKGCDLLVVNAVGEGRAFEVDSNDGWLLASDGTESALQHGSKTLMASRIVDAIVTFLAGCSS
UniProt Q8IDJ8, 1-583: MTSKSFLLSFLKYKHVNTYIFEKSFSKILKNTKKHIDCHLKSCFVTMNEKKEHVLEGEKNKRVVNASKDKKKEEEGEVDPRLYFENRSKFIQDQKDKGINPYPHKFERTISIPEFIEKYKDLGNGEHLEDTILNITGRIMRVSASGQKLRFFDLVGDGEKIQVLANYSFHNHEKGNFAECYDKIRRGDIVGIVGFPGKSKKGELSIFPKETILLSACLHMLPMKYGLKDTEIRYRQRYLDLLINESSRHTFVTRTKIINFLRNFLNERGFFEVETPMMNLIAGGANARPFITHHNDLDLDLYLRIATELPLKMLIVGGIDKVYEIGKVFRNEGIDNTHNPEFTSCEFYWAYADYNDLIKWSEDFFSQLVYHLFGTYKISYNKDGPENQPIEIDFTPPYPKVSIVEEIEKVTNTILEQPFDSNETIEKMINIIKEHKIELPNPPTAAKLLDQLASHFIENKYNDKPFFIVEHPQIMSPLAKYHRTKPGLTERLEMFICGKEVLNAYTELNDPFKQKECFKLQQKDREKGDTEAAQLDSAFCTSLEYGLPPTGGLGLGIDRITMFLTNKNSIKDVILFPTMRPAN
UniProt P9WFT3, whole entry: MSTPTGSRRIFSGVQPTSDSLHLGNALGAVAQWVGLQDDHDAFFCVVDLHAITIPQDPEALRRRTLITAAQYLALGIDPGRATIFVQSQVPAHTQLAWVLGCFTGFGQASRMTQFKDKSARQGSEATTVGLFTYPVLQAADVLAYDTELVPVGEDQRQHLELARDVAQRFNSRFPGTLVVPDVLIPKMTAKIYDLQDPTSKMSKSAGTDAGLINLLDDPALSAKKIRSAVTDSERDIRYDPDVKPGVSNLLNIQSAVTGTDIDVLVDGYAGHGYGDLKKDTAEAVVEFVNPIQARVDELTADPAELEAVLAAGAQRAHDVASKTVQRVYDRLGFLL
UniProt I6X8D2, whole entry: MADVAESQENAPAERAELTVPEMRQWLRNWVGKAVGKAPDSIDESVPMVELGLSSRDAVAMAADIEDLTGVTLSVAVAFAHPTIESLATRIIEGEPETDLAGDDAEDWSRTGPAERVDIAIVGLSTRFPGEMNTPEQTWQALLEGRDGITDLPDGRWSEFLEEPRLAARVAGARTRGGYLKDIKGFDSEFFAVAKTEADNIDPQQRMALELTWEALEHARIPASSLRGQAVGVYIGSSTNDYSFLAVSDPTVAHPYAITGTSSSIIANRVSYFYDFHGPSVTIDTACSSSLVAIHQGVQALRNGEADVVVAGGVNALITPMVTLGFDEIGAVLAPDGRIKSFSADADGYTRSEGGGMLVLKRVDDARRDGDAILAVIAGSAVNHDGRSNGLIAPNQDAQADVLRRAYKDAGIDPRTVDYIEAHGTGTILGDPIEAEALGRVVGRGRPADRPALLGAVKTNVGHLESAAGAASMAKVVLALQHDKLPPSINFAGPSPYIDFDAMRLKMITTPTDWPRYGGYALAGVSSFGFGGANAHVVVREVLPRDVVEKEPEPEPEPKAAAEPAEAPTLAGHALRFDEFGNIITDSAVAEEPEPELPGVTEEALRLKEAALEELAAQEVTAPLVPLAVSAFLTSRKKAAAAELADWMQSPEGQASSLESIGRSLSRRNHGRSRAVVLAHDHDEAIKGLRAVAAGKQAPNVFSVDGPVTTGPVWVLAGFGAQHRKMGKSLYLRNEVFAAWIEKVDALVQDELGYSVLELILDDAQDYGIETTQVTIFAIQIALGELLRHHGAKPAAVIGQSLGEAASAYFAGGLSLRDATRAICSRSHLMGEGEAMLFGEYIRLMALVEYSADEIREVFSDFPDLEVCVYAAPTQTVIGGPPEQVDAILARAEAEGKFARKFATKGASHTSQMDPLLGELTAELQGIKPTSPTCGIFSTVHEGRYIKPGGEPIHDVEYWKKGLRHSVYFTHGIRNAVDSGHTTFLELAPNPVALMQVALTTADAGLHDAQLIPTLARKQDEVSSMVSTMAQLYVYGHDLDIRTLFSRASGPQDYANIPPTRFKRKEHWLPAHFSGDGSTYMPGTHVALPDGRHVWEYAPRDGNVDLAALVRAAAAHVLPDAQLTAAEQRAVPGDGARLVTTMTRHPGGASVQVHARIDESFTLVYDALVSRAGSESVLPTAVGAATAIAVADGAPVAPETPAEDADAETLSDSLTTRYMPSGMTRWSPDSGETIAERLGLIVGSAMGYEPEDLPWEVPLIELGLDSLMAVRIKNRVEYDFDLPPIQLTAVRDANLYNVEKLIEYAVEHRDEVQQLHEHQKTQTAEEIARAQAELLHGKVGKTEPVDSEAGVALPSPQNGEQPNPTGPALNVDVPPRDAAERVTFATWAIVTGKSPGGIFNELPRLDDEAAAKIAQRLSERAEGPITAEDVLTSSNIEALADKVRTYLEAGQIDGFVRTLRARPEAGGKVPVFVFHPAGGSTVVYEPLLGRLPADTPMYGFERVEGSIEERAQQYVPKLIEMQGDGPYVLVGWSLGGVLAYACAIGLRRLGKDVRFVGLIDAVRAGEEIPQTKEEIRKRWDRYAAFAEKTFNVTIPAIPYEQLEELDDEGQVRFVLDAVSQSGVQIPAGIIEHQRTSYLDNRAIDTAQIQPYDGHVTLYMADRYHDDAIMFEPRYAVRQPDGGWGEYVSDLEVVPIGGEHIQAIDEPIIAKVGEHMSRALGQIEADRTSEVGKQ

The filed quantity is “Percent Effect” (%).
The controls that fix the scale are not given in the record; negative values are as filed.
Compounds were drawn at random from those tested, without regard to their results.

CoaBC: 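Coenzyme A biosynthesis protein CoaBC, Mycobacterium tuberculosis (UniProt P9WNZ1). Enzyme assay of CoaBC with a phosphate dye (Biomol Green) read at 650 nm. Concentration: 30 µM. Higher reads as stronger inhibition, judged from the few compounds that gave an IC50. Most strong results did not repeat in a second test. Of about 67,000 compounds tested this way, about 40 (0.06%) reached 50% or more in at least one test.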
PfKRS1: 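Enzyme assay of the cytosolic lysyl-tRNA synthetase in 384-well plates, read by luminescence. Target: Lysine-tRNA ligase, Plasmodium falciparum 3D7 (UniProt Q8IDJ8). Tested at 30 µM. Higher reads as stronger inhibition, judged from the few compounds that gave an IC50. Size under these conditions: about 69,000 compounds, about 49 of them at 50% or above in at least one test.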
Toxoplasma: 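Assay of Toxoplasma gondii numbers, read through their beta-galactosidase reporter with a colour substrate. Concentration: 10 µM. Higher reads as fewer parasites (inferred from which compounds were picked for retests). Size under these conditions: about 67,000 compounds, about 260 of them at 50% or above in at least one test.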
MtTrpRS: 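Tryptophan-tRNA ligase, Mycobacterium tuberculosis (UniProt P9WFT3). Enzyme assay of tryptophanyl-tRNA synthetase; the read-out is not stated. Compounds at 10 µM. Higher most likely means stronger inhibition; the record gives no direction and few retests gave an IC50. About 65,000 compounds were tested under these conditions; 0.098% (about 64) showed 50% or more at least once.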
Pks13 thioesterase: 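Polyketide synthase Pks13, Mycobacterium tuberculosis (UniProt I6X8D2). Enzyme assay of the thioesterase domain of polyketide synthase 13; the read-out is not stated. Tested at 30 µM. The record gives no direction; the compounds picked for IC50 retests had high values, so higher reads as stronger inhibition. Of about 67,000 compounds tested this way, about 300 (0.46%) reached 50% or more in at least one test.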

structure: CO[C@@H]1CO[C@@]2(CCCN(C(=O)C3CC=CC3)C2)C1
CoaBC: 0.2469
PfKRS1: 4.483
Toxoplasma: -37.03
Pks13 thioesterase: 6.297

structure: CCN(Cc1ccncc1)CC1(O)CCN(C(=O)c2ccccc2C)C1 (configuration not stated)
CoaBC: 5.596
PfKRS1: 0.3917
Toxoplasma: 12.22
MtTrpRS: 0.8696
Pks13 thioesterase: 2.223

structure: Cc1cnn(CCC(=O)NC2CCc3nc(C)cn3C2)c1 (configuration not stated)
CoaBC: 5.492
PfKRS1: 0.3174
Toxoplasma: -0.8391
MtTrpRS: -2.568
Pks13 thioesterase: -4.005

structure: CSCC[C@H](N)C(=O)NCc1cc2n(n1)CCCN(C(=O)C1CCC1)C2
CoaBC: 2.954
PfKRS1: 6.649
Toxoplasma: 13.9
MtTrpRS: -3.033
Pks13 thioesterase: -4.838

structure: [H][C@]12C[C@H](NC(=O)c3cc(C)no3)[C@@]1([H])CN(S(=O)(=O)c1ccc(C)cc1)C2
Toxoplasma: 4.321

structure: COc1cc(CN(C)C(=O)Cc2c(C)nn(C)c2C)ccc1OC(F)F
CoaBC: 0.8439
PfKRS1: 4.444
Toxoplasma: 1.163
MtTrpRS: -0.000009
Pks13 thioesterase: -9.147

structure: Cc1nc(N2CCCC2)nc2c1CN(C(C)C)CC2
CoaBC: 3.68
PfKRS1: -0.1187
MtTrpRS: -0.9444
Pks13 thioesterase: -15.43

structure: O=C(NCCN1CCc2ccccc2C1)c1scnc1Cl
CoaBC: 4.174
PfKRS1: 3.04
Toxoplasma: -1.067
MtTrpRS: 1.072
Pks13 thioesterase: -7.938

structure: CC(C)CS(=O)(=O)CC(=O)NC1CCCCNC1=O (configuration not stated)
CoaBC: 0.9558
PfKRS1: 3.154
Toxoplasma: -11.55
MtTrpRS: -4.931
Pks13 thioesterase: -21.11

structure: CN(Cc1ccc(F)cc1)C(=O)NCc1nnc2n1CCCCC2
CoaBC: 8.74
PfKRS1: 1.41
MtTrpRS: 4.013
Pks13 thioesterase: -21.33

structure: NC(=O)C1CCN(c2nc3nccc(-c4ccncc4)c3c(=O)[nH]2)CC1
CoaBC: 1.392
PfKRS1: -4.272
Toxoplasma: 13.11
MtTrpRS: -3.525
Pks13 thioesterase: 13.28

structure: Fc1cccnc1Oc1cc(F)c(CN2CCCC2)c(Cl)c1
CoaBC: -0.8264
PfKRS1: -10.2
Toxoplasma: 16.83
MtTrpRS: -4.112
Pks13 thioesterase: 18.27

structure: COCCC(=O)N1CCC2(CN(Cc3cccc(Cl)c3)C2)C1
CoaBC: -4.079
PfKRS1: -1.81
Toxoplasma: 6.021
MtTrpRS: 6.899
Pks13 thioesterase: -26.39

structure: N[C@H]1CN(S(=O)(=O)c2cccnc2)C[C@@H]1C1CC1
CoaBC: 5.2
PfKRS1: 3.547
Toxoplasma: -14.19
MtTrpRS: -5.326
Pks13 thioesterase: -22.11

structure: CCC1(O)CCCN(c2nc(-c3ccccn3)nc3c2c(C)nn3C)C1 (configuration not stated)
CoaBC: 2.814
PfKRS1: 6.114
Toxoplasma: -8.925
MtTrpRS: -0.4831
Pks13 thioesterase: -10.71

structure: CC(C)(CNc1ccc(S(=O)(=O)C(F)F)cc1)N1CCOCC1
CoaBC: 17.15
PfKRS1: 4.208
Toxoplasma: -13.83
MtTrpRS: 5.722
Pks13 thioesterase: -17.66

structure: [H][C@@]12C[C@@H](OCc3cccc(C)n3)CN1CCN(C(=O)c1cnccn1)C2
Toxoplasma: 3.918

structure: COCCN1CC[C@H](O)[C@@H]1Cc1ccccc1.O=C(O)C(F)(F)F
Toxoplasma: -7.651

structure: CS(=O)(=O)NCc1nnc2n1CCN(Cc1cccs1)CC2
CoaBC: -0.5
PfKRS1: 5.441
MtTrpRS: 4.066
Pks13 thioesterase: -11.64

structure: CN(C)CCN1CCCC12CCCN(Cc1ccoc1)C2.O=C(O)C(F)(F)F.O=C(O)C(F)(F)F.O=C(O)C(F)(F)F (configuration not stated)
Toxoplasma: -7.559

structure: CCN(CC)CC[C@H]1CN(C(=O)CC(C)(C)C)CC[C@H]1CC(=O)O
CoaBC: -4.74
PfKRS1: 3.094
Toxoplasma: -5.122
MtTrpRS: -2.033
Pks13 thioesterase: -30.76

structure: NC(=O)[C@@H]1Cc2ccccc2CN1S(=O)(=O)N1CCCCC1
CoaBC: 2.184
PfKRS1: -2.622
Toxoplasma: -3.056
MtTrpRS: 1.44
Pks13 thioesterase: 4.937

structure: CC(C)c1ncncc1C(=O)N1CCN(Cc2ccsc2)CC1
CoaBC: 6.769
PfKRS1: 0.7226
Toxoplasma: -11.21
MtTrpRS: -5.796
Pks13 thioesterase: -13.85

structure: Cc1ccc(CN2CCC3(CC2)CCN(Cc2ccoc2)CC3)cc1.O=C(O)C(F)(F)F.O=C(O)C(F)(F)F
Toxoplasma: 9.994

structure: CN(C)CC1(O)CCN(S(=O)(=O)c2ccc(Cl)cc2)C1 (configuration not stated)
CoaBC: 1.695
PfKRS1: 0.9047
Toxoplasma: 0.211
Pks13 thioesterase: -21.06

For reference, 2 entries once more:

{"structure": "[H][C@@]12C[C@@H](OCc3cccc(C)n3)CN1CCN(C(=O)c1cnccn1)C2", "Toxoplasma": 3.918}
{"structure": "CC(C)CS(=O)(=O)CC(=O)NC1CCCCNC1=O", "stereo": "configuration not stated", "CoaBC": 0.9558, "PfKRS1": 3.154, "Toxoplasma": -11.55, "MtTrpRS": -4.931, "Pks13 thioesterase": -21.11}